The target in assay [1] is Recombinant human Src (Homo sapiens, UniProt P12931). The experiment in a line: Src tyrosine kinase activity, poly E4Y / 32P-ATP phosphorylation assay. To be noted: read-out: IC50 (μM) Src, Formula IV compounds. Here is the method: Recombinant human Src was expressed using the baculovirus-insect cell system and purified as published (Budde et al., 1993 and 2000). Recombinant Csk and the FGF receptor (FGFr) were expressed as […] fusion proteins using the pGEX expression vector and E. coli, and purified as described (Sun & Budde, 1995).
The tyrosine kinase activity of Src, Csk and FGFr was determined using poly E4Y and ^32P-ATP. Briefly, enzymes were assayed in a reaction mixture consisting of 0.15 M EPPS-NaOH (pH 8.0) with 6 mM MgCl2, 0.2 mM γ^32P-ATP (0.2-0.4 mCi/μmol), 10% glycerol, 0.1% Triton X-100, and poly E4Y. Poly E4Y is a synthetic peptide whose phosphorylation is measured in this assay by the addition of the radioactively labeled phosphate from the ATP (Budde et al., 1995). For screening assays, 50 μg/ml poly E4Y was used, and for Ki determinations variable concentrations (0, 20, 30, 75, and 150 μg/ml) of poly E4Y were used. When ATP was varied (0, 50, 100 and 250 μM), poly E4Y was kept constant at 150 μg/ml. […]

The chains behind the UniProt entries cited, without tags or fusion partners. Residues count along the entry.
UniProt P12931, whole entry: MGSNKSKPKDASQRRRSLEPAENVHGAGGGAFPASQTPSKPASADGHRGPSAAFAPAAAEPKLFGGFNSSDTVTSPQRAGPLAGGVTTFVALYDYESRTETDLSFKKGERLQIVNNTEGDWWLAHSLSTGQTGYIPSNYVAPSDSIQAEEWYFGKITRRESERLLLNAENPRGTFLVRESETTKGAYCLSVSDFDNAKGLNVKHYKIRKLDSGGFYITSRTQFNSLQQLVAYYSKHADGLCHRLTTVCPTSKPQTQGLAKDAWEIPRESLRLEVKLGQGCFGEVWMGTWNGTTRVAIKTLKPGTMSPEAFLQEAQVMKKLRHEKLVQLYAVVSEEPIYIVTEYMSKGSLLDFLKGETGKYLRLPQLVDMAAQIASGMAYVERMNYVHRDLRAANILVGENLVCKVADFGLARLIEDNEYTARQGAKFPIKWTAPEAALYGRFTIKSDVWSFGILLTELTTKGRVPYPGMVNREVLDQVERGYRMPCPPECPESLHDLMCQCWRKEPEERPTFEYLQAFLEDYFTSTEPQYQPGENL
UniProt P41240, whole entry: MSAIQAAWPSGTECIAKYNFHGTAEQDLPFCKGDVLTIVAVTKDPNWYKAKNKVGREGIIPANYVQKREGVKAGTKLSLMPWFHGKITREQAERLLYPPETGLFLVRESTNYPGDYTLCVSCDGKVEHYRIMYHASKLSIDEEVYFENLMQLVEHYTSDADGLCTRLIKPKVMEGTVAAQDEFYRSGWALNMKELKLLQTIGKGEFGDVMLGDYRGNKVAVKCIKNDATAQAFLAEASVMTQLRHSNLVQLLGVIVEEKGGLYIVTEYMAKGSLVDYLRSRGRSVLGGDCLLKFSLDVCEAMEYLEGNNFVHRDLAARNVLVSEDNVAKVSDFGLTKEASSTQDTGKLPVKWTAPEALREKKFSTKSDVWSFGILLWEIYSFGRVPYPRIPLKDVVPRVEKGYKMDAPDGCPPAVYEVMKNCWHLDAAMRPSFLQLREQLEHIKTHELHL
UniProt P11362, 22-822 limits assumed: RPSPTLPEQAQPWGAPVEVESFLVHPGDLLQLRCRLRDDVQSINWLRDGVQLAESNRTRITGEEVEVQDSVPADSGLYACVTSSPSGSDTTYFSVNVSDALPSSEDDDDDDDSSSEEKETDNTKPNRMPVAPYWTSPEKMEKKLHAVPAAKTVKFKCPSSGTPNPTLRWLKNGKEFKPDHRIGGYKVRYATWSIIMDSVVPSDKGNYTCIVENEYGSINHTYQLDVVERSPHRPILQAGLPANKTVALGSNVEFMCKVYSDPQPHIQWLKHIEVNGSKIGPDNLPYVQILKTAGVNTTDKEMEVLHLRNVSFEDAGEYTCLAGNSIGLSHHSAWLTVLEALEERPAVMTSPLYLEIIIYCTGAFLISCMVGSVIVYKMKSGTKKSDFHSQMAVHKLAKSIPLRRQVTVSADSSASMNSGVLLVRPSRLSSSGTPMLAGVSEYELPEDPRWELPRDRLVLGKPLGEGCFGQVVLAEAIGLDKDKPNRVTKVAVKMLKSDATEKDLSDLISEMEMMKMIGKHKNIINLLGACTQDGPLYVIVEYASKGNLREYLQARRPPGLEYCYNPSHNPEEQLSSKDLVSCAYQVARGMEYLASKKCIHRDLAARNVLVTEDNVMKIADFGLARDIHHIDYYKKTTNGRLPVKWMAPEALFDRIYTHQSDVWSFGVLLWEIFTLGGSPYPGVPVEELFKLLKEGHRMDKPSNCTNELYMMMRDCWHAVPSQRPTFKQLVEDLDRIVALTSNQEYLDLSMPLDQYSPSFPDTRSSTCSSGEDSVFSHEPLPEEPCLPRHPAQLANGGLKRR

Assay [2] concerns the target Recombinant Csk (Homo sapiens, UniProt P41240). Briefly: Csk tyrosine kinase activity, poly E4Y / 32P-ATP phosphorylation assay. The settings on record: Formula IV compounds. How it is done: (§1) The tyrosine kinase activity of Src, Csk and FGFr was determined using poly E4Y and ^32P-ATP. Briefly, enzymes were assayed in a reaction mixture consisting of 0.15 M EPPS-NaOH (pH 8.0) with 6 mM MgCl2, 0.2 mM γ^32P-ATP (0.2-0.4 mCi/μmol), 10% glycerol, 0.1% Triton X-100, and poly E4Y. Poly E4Y is a synthetic peptide whose phosphorylation is measured in this assay by the addition of the radioactively labeled phosphate from the ATP (Budde et al., 1995). For screening assays, 50 μg/ml poly E4Y was used, and for Ki determinations variable concentrations (0, 20, 30, 75, and 150 μg/ml) of poly E4Y were used. When ATP was varied (0, 50, 100 and 250 μM), poly E4Y was kept constant at 150 μg/ml.

Assay [3] deals with FGF receptor (FGFr) (UniProt P11362). The experiment in a line: FGFr tyrosine kinase activity, poly E4Y / 32P-ATP phosphorylation assay. The settings on record: read-out: IC50 (μM) FGFr, Formula IV compounds. How it is done:
as §1

The structures given here were assigned with low confidence; some may be wrong.

Experimental findings from US20060004197A1, “Sulfonamide-based compounds as protein tyrosine kinase inhibitors” (priority 2004, published 2006) are described below.

On to `CCOP(=O)(OCC)Oc1cc(Oc2ccc(OC)cc2)ccc1NS(=O)(=O)c1ccc(C)cc1`, for which the IC50 in assay [1] came out at 65 µM; in assay [3] it was 109 µM. Moreover, the “IC50 (μM) Csk” value in assay [2] is “NI (NI = no inhibition at 100 μg/mL)”.

Broadly, the IC50 is the midpoint of a concentration-inhibition curve.
